Source: the supplement of paper PMC5949888
Most values lie at the floor of the assay. Slopes are relative: functional sequences can read slightly below zero.

Tested on: Saccharomyces cerevisiae PS128 hsf1 delta, HSF1(1-493) fusion
Test: growth estimate (transactivation domain function in HSF1 fusion, heat-shock survival) (a.u. (slope of normalised read count over time)); higher = stronger growth at 37°C, i.e. more transactivation activity
Details: library: random library

Substance	growth estimate
RCSRKYLKQRSN	< -0.25
SSCG	< -0.25
LENG	-0.111
FAEKFRDSLLKL	-0.207
RSDLLCIRNGKYAQVKKPGS	< -0.25
VYGNEYG	< -0.25
DQSIGPLLAVYHPASVTGRE	< -0.25
VRSSYAGYFAGILRLQRLF	< -0.25
IPRETTWGSGRL	-0.193
LKF	< -0.25
EATRFWGWDLASAPRSYDPP	< -0.25
NSCRRNRATPSHRVLTQFFA	< -0.25
LAGRSTNRCGLVSTVKRGWR	< -0.25
YPIIYR	< -0.25
GRDSRAVVLHGLFSPQEYAP	< -0.25
RHQAGLIWQRCNWFSGLFPG	< -0.25
PFSVL	< -0.25
VGGRCLPPAPLLGGAPKKAV	< -0.25
RSLRNTTPAYISSL	< -0.25
RGFSGTLS	< -0.25
TSISFEVYDRISDLYVYRQA	< -0.25
RSSHAGWNYGLNRPGKMGAL	< -0.25
VRVEVMWTTYLFFRYHGAED	< -0.25
QRLWGTPVGGYAEKKKWREC	< -0.25
HEKRSTAVSTVLIHDRLRRA	< -0.25

Substance	growth estimate
RSSTPREGVPGIRNEPMPTV	< -0.25
DSTSLGHRSAFRTRCRRRDT	< -0.25
ISRGSICASVWDTTFRPSVI	< -0.25
RLRI	< -0.25
VHNSIITKG	< -0.25
AQDFI	< -0.25
NAFKMAIILHAFPRNRTCSA	< -0.25
FGRVVCKFLSVGANPFSFCG	< -0.25
PVWEVESACPNSDSALAAKS	< -0.25
SISISHAVAVGLQ	< -0.25
LVIKQHNYSTITGGP	< -0.25
RCFG	< -0.25
AGRGCL	< -0.25
VQET	-0.241
VWDPRNPMEMHRQAR	< -0.25
RLRETR	< -0.25
NASGLVLNTQMIMAAMWKCC	< -0.25
KGEPSQTSWPKQALH	< -0.25
QLWSRKVRMLNRRERAGINF	< -0.25
TFDPQVPIRQRD	< -0.25
VIEKCGGRKDRTGNMMRHDT	< -0.25
TSTAPIIGRPPRPDSSQLNP	< -0.25
VRVTVPAHDISLITART	< -0.25
ANS	< -0.25
LAEIMGALRCHHLM	< -0.25

Some of the entries above in a different format.
IPRETTWGSGRL
  growth estimate = -0.193
LKF
  growth estimate = < -0.25

Pulled one by one from the list above, 6 records:
Substance	growth estimate
EATRFWGWDLASAPRSYDPP	< -0.25
DSTSLGHRSAFRTRCRRRDT	< -0.25
YPIIYR	< -0.25
AGRGCL	< -0.25
LVIKQHNYSTITGGP	< -0.25
HEKRSTAVSTVLIHDRLRRA	< -0.25

(next part)

Substance	growth estimate
GFGRAGVAAEKGFGGTRGH	< -0.25
SSLLGALGYRANPPMALHTC	< -0.25
NPCSRWQDRAGPGLRTGCAL	< -0.25
MIRKACGKRLEPRVSAVHKR	< -0.25
SERVASVMMPFCA	< -0.25
TEN	< -0.25
RAFLLMGTTQCQNA	< -0.25
KPPRVTLPHSGSP	< -0.25
KNTNLSRTVQPGTVLDYCTG	< -0.25
IVVPPSPAI	< -0.25
RRCSSLRTWSGVSRD	< -0.25
SCWRGIRHRALFWFKYTASP	< -0.25
CLGGTVIPDHDV	-0.246
KTVTDCLCCGSANGEPTRRG	< -0.25
VWCEGSSQSACKTRHIRVMG	< -0.25
LEACSGRCFDPACTVGA	< -0.25
LQPLPGMGQTMPLTTRSNVG	< -0.25
APDSGVGLTTVRATAGGSFR	< -0.25
GIASSKHAFRESSSGY	< -0.25
LREADS	< -0.25
PRKRMKRQVRVSDKTAGFER	< -0.25
HVTARRYVSVHSLLVSFRPG	< -0.25
RFSPANHVRYFYSPGRDLHA	< -0.25
LQSRFVDNGLLCALNAALAA	< -0.25
KGTVLNCYHRLVGNEPEPLR	< -0.25

Substance	growth estimate
MPFICSGYVI	< -0.25
PLI	< -0.25
CRRFDALGFDW	-0.0054
DTLYGPCNGSRFTSSPVH	< -0.25
LYVRCPAGPSGRPVAQRMSV	< -0.25
PRTVSRLPIPRREMRISDKG	< -0.25
DLRE	< -0.25
IRN	< -0.25
NLCVNVGSGASLKGFNWFGA	< -0.25
VKR	< -0.25
GYRFCVTSRTMTPRGVREVT	< -0.25
RLVSWEC	< -0.25
LGRRMI	< -0.25
HQPEHLTYVIRQSAGLGFIV	< -0.25
ICMLIMRWGRNGRSLRRLQV	< -0.25
GVQLGCSRCQ	< -0.25
GRWNCQEERVLDSKPVVKWF	< -0.25
TVSEGDQDEVRIGLCVIESI	< -0.25
YYPESLEC	< -0.25
NRRLSSCGCTFADRKGRKLG	< -0.25
AAFK	< -0.25
DRITC	< -0.25
YGNLIPGRIWKGFLDAPHAL	< -0.25
IGRGTEHALVGMGLVPYLRK	< -0.25
TRAPLCPEYHG	< -0.25

5 entries from above, reformatted:
Substance | growth estimate
SERVASVMMPFCA | < -0.25
TEN | < -0.25
RAFLLMGTTQCQNA | < -0.25
KPPRVTLPHSGSP | < -0.25
KNTNLSRTVQPGTVLDYCTG | < -0.25

Later entries

Substance	growth estimate
FVFQGLLTRSGQILVFVGSY	< -0.25
AWLGWQDGYMDTHQRGVNTG	-0.246
VARRGDYREIGGRKRSKGFA	< -0.25
SFYASRSVAIVRRHARAQRR	-0.248
FVD	< -0.25
SGRSSLQTRGPRV	< -0.25
GVLQCLIYCDEHIQLRVSQP	< -0.25
FPPRVSSGRIA	< -0.25
QSCSFFMRA	< -0.25
RPLVGVGRNWTFVPAGTWLR	< -0.25
SIYEEGSRHDTRSMFELPIR	< -0.25
TYQIALLFDLAR	< -0.25
PNPFMVIVQLKVGITSCIRE	< -0.25
VSSKMPLHVR	< -0.25
KRYRTPCLRDRSCMSYRLHS	< -0.25
LTQERWFSDGRRISF	< -0.25
VGGSPSMTSRYMQSSDPKGS	< -0.25
LECWCHLASWTHIYIGNFVV	< -0.25
GEPGH	< -0.25
GLSFVSGGFLFHNSPLQKPS	-0.197
GSAKDR	< -0.25
MPGELERSACMLHTHWSPGA	< -0.25
RGGAECYGVQGSGFIGGFF	-0.246
LLIVSCWDAAMYLEIAITCR	-0.25
SLNSRYCTHSRSTLTDPVPS	< -0.25

Substance	growth estimate
RLRSSNMSRYSVVLVHFRIP	< -0.25
CWVKIPGEDLRKGYADIETV	-0.246
AAVWPTP	< -0.25
VPSC	< -0.25
QGYLKGAQPYTGCKQRIQLR	< -0.25
RDPLRPLGAMTRAALNVNRT	< -0.25
NRDSF	< -0.25
HGSEPGWDPPRRGLITGSGC	< -0.25
CLGSCFGDLGTFRLWGQLSK	< -0.25
CAIRQVRLVGLREELVSMGQ	< -0.25
SWCGGAGAAGKFALRGRAQA	< -0.25
TYNNPGRKTIFFYSYGDTGP	< -0.25
RPLRLSIMDRWYCV	< -0.25
IPELVHRGGASLNWTEPRVR	< -0.25
DASPVRGRMARGP	< -0.25
RLYFSGSYVTGWSKSREDRV	< -0.25
CRQY	< -0.25
ERTRIGPYPAVCRLFRPLRY	< -0.25
QAREIRPALECLMIGRVYGC	< -0.25
CRTFSQSGYIITMYSEKKES	< -0.25
TTTGR	< -0.25
REVTRAWGRIGDLSANVLKS	< -0.25
DDTNEA	< -0.25
LRGLLEYCHATKERKMKMAT	< -0.25
TDASVHARKWDKAVPAQGGA	< -0.25

Substance	growth estimate
SPLGYYLVAPCPWI	< -0.25
MNS	< -0.25
SVSDVSCSLNCPRIPEWT	< -0.25
GIAPGPPSLQIPGSVRVLFT	< -0.25
SGLSPVWRSIAKHFLESGKV	< -0.25
CSFQGDCQGM	< -0.25
EHVRTRCIFISVALACTIIP	< -0.25
LYAVYVLSPIGLG	< -0.25
LRENGQ	< -0.25
YCISTGVPWRFLGRSHGVMR	< -0.25
PLGDKLPVSGFLVTTEEALV	< -0.25
MEWVK	< -0.25
YKNQRNSRTTGRGLQ	-0.0978
KHEGGGPWAVIFSKREVWLA	< -0.25
CLCA	< -0.25
EFLLLLPCPAG	< -0.25
ADLSAHC	< -0.25
NGRVREGKRGIWS	< -0.25
HQTSGR	< -0.25
VPFESSVWPATWCVKR	< -0.25
LSSMRSEYS	< -0.25
VTQVASSSLVSLIASARYRP	< -0.25
LVKGNRYR	< -0.25
LHFASRKWAFKYWGFDEANN	< -0.25
RICRLMMVLCALLAGVPSKG	< -0.25

Substance	growth estimate
HRVTKSRGYLSRV	< -0.25
KGDRTRLPDSVINVDIFYGS	< -0.25
GTVPRVGLASLDICVHDVSA	< -0.25
VFTTINRTTATVSRSKLMQ	< -0.25
LYSVIRQRGVVDFEQESMLR	< -0.25
LRSSSSQR	< -0.25
FMERHMAGVIGSTVCSLSRD	< -0.25
ISLEGLPSTP	< -0.25
APVLTWGVSERYHGLRCAHI	< -0.25
AKYWVSTQGGPQSKRNGLWM	< -0.25
NIIQIWV	-0.112
TRIIIVFRCTISAAAVQPRT	< -0.25
PLCSEY	-0.0071
RQTEIE	< -0.25
CGLR	< -0.25
AKAGVAIGRCRC	< -0.25
TLRIWRLLGLSATWRRTTKG	< -0.25
GHQASYGLMTGAGIARETHL	-0.247
FVTACIHGSDCVCWPVWPRA	< -0.25
TFVD	< -0.25
IWVPSDLAVLRPASWLPSRC	< -0.25
SYGQGTNEVTSHRDRWAPPT	< -0.25
